Experimental findings from PMC11210491 are described below.

By UniProt entry, the sequences of proteins in these tests, tags left out. Where a name states a change or a piece, a line headed by the entry shows the natural chain unless it says otherwise.
UniProt Q9NR19: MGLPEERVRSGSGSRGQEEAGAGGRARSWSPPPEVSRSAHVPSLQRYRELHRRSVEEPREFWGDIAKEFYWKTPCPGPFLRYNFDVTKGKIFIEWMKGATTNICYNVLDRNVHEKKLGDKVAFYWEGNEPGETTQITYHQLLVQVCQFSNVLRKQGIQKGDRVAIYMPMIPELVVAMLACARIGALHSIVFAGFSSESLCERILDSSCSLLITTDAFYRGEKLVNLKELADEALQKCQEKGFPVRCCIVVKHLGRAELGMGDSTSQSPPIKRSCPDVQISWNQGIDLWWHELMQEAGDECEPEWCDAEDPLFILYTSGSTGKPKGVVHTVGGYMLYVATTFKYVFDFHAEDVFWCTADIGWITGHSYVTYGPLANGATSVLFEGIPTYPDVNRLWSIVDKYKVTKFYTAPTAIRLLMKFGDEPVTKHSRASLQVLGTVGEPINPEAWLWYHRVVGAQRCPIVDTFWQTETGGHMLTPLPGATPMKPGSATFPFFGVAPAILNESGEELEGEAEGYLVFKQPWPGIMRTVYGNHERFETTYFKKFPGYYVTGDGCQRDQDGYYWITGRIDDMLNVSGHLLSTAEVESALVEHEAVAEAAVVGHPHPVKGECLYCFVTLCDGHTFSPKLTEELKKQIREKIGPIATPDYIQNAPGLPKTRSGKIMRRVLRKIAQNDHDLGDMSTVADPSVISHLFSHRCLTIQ
UniProt P37231: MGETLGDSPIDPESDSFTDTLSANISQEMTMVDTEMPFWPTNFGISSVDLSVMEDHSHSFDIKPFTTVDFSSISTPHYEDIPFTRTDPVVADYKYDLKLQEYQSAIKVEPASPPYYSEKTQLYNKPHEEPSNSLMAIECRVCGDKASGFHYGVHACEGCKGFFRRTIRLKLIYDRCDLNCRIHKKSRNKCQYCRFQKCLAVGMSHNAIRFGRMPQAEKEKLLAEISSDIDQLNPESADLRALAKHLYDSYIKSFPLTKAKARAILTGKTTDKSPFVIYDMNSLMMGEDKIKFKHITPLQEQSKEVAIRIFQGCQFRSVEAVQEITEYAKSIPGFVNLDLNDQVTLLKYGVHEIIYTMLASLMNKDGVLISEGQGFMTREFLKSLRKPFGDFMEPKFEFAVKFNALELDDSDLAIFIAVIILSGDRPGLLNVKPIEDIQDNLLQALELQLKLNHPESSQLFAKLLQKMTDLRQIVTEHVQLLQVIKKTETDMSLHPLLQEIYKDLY

Assay [1] deals with His-ACSS2 (human) (UniProt Q9NR19). Put plainly: pull-down; reverse direction of the pull-down of purified His-ACSS2 and GST-PPARγ (ACSS2 pulling down PPARγ); conditions not given; both purified.
The target in assay [2] is GST-PPARγ (human) (UniProt P37231). Put plainly: pull-down; GST pull-down: 200 ng purified His-ACSS2 with 100 ng GST-PPARγ and glutathione agarose beads; 50 mM tris-HCl pH 7.5, 1% Triton X-100, 150 mM NaCl, 1 mM dithiothreitol, 0.5 mM EDTA, 4 °C; both purified.
Assay [3] deals with VC155-HA-PPARγ (peroxisome-proliferator-activated receptor gamma) (human) (UniProt P37231). Nature of the assay: split reporter; SH-SY5Y cells transfected with 2 μg of the BiFC plasmids; with 10 μM NaAC, 1 μM NaPPA and 0.1 μM NaBA alone or together for 24 h.
The target is the same in assay [4]. Put plainly: split reporter; HEK293T cells cotransfected with pBiFC-VN173 and pBiFC-VC155 fusion plasmids (2 μg); YFP fluorescence imaged after 24 h, DAPI for nuclei.

No constants are given. Whether binding was seen depends on the method and setting. Binding can be weak; no strength is given. For some of these results: Binding seen in cells or lysates may run through a third protein.

On to “GST-PPARγ (from UniProt P37231-2) (receptor)”, for which the binding result in assay [1] is “binds”.

Regarding “His-ACSS2 (from UniProt Q9NR19-1 1-701) (enzyme)”, the binding result in assay [2] is “binds”.

Regarding “VN173-Flag-ACSS2 (acetyl-coenzyme A synthetase short-chain family member 2) (from UniProt Q9NR19-1 1-701)”, the binding result in assay [3] and in assay [4] was “binds” in each case.
